The values that follow come from article PMC11746084.

Amino acid sequences for entries named in this document (tags omitted).
UniProt B2RSH2: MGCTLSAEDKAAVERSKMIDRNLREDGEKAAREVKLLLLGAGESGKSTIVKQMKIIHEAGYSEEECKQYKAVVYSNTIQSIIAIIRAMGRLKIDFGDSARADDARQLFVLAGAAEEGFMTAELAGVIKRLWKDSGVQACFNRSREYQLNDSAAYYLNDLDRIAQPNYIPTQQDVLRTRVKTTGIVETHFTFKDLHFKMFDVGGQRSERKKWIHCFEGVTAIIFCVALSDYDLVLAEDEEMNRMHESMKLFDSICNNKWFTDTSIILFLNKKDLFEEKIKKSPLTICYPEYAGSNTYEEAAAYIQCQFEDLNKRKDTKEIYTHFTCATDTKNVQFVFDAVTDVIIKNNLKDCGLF
UniProt Q9DC51: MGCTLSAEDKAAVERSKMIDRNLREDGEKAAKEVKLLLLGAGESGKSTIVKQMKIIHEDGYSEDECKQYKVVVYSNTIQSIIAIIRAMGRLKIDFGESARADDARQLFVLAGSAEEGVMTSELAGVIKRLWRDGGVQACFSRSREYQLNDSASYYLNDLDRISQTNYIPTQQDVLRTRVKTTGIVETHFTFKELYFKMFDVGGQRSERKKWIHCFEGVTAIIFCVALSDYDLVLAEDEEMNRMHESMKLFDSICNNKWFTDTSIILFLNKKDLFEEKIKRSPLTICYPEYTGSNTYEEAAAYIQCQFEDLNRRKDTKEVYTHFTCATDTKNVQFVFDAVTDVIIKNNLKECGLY
UniProt P63096: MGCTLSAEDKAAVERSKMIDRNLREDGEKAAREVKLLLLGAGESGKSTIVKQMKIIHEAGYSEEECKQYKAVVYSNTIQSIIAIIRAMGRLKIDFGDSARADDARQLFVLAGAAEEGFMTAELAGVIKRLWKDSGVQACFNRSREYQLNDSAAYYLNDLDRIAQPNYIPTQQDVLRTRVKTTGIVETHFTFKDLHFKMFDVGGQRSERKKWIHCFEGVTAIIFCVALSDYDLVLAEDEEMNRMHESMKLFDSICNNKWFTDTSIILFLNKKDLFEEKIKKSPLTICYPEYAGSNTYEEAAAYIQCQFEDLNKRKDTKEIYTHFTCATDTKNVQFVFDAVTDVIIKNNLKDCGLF
UniProt P08754: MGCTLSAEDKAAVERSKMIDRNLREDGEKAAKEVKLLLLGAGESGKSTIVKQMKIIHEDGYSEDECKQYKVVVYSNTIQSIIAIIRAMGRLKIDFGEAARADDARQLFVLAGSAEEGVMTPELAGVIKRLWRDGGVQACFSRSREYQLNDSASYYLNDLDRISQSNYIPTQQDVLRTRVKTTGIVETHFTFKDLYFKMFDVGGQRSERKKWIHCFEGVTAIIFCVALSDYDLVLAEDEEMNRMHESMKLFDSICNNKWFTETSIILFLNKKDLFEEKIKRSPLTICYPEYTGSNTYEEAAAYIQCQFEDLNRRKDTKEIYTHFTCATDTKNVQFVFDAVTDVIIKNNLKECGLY

No constants are given. Whether binding was seen depends on the method and setting. In cells and extracts the contact can be indirect. Some results given as binding are weak or reduced against the parent protein; the word gives no strength.

The target of test [1] is T1, IL-5Rα (mouse, endogenous in MEFs) (mouse (endogenous in MEFs)) (UniProt P21183).
T1 sequence: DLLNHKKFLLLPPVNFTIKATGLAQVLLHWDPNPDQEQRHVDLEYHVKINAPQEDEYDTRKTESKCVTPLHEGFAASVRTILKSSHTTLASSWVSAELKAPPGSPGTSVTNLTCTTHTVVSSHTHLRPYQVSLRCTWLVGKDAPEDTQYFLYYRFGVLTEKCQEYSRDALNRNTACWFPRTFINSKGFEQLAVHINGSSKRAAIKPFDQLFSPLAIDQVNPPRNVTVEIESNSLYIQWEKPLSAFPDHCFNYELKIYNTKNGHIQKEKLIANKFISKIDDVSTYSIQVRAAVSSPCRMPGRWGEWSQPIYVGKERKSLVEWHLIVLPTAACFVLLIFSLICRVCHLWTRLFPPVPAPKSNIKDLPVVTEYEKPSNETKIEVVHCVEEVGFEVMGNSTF
The experiment in a line: co-IP; WT and Gαi1/3 DKO MEFs treated with IL-5 (25 ng/mL) for 5 min; lysate, primary antibody overnight at 4°C, Agarose A/G beads, washed with PBS, western blotting.

In test [2] the target is T2, IL-5Rα (human, endogenous in EoL-1 cells) (human (endogenous in EoL-1)) (UniProt Q01344).
T2 sequence: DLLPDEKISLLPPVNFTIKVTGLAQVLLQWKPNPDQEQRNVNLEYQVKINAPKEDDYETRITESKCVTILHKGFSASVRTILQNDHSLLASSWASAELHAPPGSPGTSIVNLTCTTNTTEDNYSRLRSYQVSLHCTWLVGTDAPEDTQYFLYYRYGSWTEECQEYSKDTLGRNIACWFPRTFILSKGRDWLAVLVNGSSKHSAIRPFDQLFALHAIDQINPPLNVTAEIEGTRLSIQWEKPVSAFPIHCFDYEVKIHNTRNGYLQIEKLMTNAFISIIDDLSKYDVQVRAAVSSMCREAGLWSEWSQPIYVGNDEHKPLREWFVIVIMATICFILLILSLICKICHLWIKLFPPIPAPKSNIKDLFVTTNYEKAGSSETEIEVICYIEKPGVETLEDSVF
Description: co-IP; EoL-1 cells treated with GM-CSF (50 ng/mL) and IL-5 (50 ng/mL) for 5 min; lysate, primary antibody overnight at 4°C, Agarose A/G beads, washed with PBS, western blotting. Background: Immunoblotting shows a protein as a band on a membrane.

For “Gαi1 (mouse, endogenous in MEFs) (from UniProt B2RSH2 1-354)”, the binding result in test [1] is listed as “binds”. Same read-out and setting: for “Gαi3 (mouse, endogenous in MEFs) (from UniProt Q9DC51 1-354)” the value was “binds”.

Regarding “Gαi1 (human, endogenous in EoL-1 cells) (from UniProt P63096 1-354)”, the binding result in test [2] is recorded as “binds”. Still for that read-out and setting: for “Gαi3 (human, endogenous in EoL-1 cells) (from UniProt P08754 1-354)” the value was “binds”.

B1: Gab1 (human, endogenous in EoL-1 cells) (protein, UniProt Q13480 1-694)
chain: MSGGEVVCSGWLRKSPPEKKLKRYAWKRRWFVLRSGRLTGDPDVLEYYKNDHAKKPIRIIDLNLCQQVDAGLTFNKKEFENSYIFDINTIDRIFYLVADSEEEMNKWVRCICDICGFNPTEEDPVKPPGSSLQAPADLPLAINTAPPSTQADSSSATLPPPYQLINVPPHLETLGIQEDPQDYLLLINCQSKKPEPTRTHADSAKSTSSETDCNDNVPSHKNPASSQSKHGMNGFFQQQMIYDSPPSRAPSASVDSSLYNLPRSYSHDVLPKVSPSSTEADGELYVFNTPSGTSSVETQMRHVSISYDIPPTPGNTYQIPRTFPEGTLGQTSKLDTIPDIPPPRPPKPHPAHDRSPVETCSIPRTASDTDSSYCIPTAGMSPSRSNTISTVDLNKLRKDASSQDCYDIPRAFPSDRSSSLEGFHNHFKVKNVLTVGSVSSEELDENYVPMNPNSPPRQHSSSFTEPIQEANYVPMTPGTFDFSSFGMQVPPPAHMGFRSSPKTPPRRPVPVADCEPPPVDRNLKPDRKVKPAPLEIKPLPEWEELQAPVRSPITRSFARDSSRFPMSPRPDSVHSTTSSSDSHDSEENYVPMNPNLSSEDPNLFGSNSLDGGSSPMIKPKGDKQVEYLDLDLDSGKSTPPRKQKSSGSGSSVADERVDYVVVDQQKTLALKSTREAWTDGRQSTESETPAKSVK
For the molecule B1, the binding result in test [2] was “binds”.
